In PubChem BioAssay AID248 (DTP/NCI, 2004):
The list does not hold the whole screen: it is rich in T/C values a quarter to a half above the control, in often repeated tests (any T/C) and in doses without a T/C. Other doses and runs of a compound stand elsewhere. T/C is the treated group as % of the vehicle group. Some doses have a count of surviving animals in place of a T/C: the source holds a T/C of zero for them, seemingly a mark for toxic or unscored doses. Some survivor counts are full or nearly so, which does not show that the dose was tolerated: survival well below the control is almost never listed, so the zero probably covers shortened survival too. Survivors were counted at the toxicity check, usually on the fifth day, unless a day is given; later deaths do not show. Schedule codes are those of the source, read here as Q, the interval in days (D) or hours (H), X, the number of doses. Some schedules carry Z or #; the key to these is not given. Where survival is the endpoint, this PubChem deposit counts one and a half times the control or more as active, and values a quarter to a half above the control carry no call in these data; other NCI protocols may use other cut-offs. Some T/C values are followed by the survivors on the day toxicity was checked, most often the fifth; without a count, all were alive then.

Test system: L1210 leukemia ip in BDF1 mice, survival T/C
Experiment: NCI In Vivo Anticancer Drug Screen. Data for tumor model L1210 Leukemia (intraperitoneal) in B6D2F1 (BDF1) mice
Conditions: T/C endpoint: mean survival time, higher T/C = longer survival
[1] = dose: 25.0 mg/kg/injection, schedule: Q04DX002 (ip), vehicle: Klucel (hydroxypropylcellulose) (HPC)
[2] = dose: 50.0 mg/kg/injection, schedule: Q04DX002 (ip), vehicle: Klucel (hydroxypropylcellulose) (HPC)
[3] = dose: 100.0 mg/kg/injection, schedule: Q04DX002 (ip), vehicle: Klucel (hydroxypropylcellulose) (HPC)
[4] = dose: 400.0 mg/kg/injection, schedule: Q04DX002 (ip), vehicle: Klucel (hydroxypropylcellulose) (HPC)
[5] = dose: 400.0 mg/kg/injection, schedule: Q04DX002 (ip), vehicle: saline with Tween-80
[6] = dose: 200.0 mg/kg/injection, schedule: Q04DX002 (ip), vehicle: Klucel (hydroxypropylcellulose) (HPC)

SMILES: CC1(C)C2CCC1(C)C(OCCCN=C(N)CSS(=O)(=O)O)C2 (centres undefined)
- survivor count (dose: 12.0 mg/kg/injection, schedule: Q04DX002 (ip), vehicle: Klucel (hydroxypropylcellulose) (HPC)): 3 of 3
- survivor count [1]: 1 of 3
- survivor count [2]: 0 of 3
- survivor count [3]: 0 of 3

SMILES: CC1(C)NC(=O)C2CC21C (centres undefined)
- survivor count (dose: 200.0 mg/kg/injection, schedule: Q04DX002 (ip), vehicle: saline): 0 of 3
- survivor count (dose: 400.0 mg/kg/injection, schedule: Q04DX002 (ip), vehicle: saline): 1 of 3

SMILES: NNc1ncnc2c1c(C(N)=O)cn2C1OC(CO)C(O)C1O (centres undefined)
- T/C (dose: 100.0 mg/kg/injection, schedule: Q01DX005 (ip), vehicle: saline): 145 % of control [4 of 6 alive]
- survivor count (dose: 200.0 mg/kg/injection, schedule: Q01DX005 (ip), vehicle: saline): 0 of 6

SMILES: CC1(C)C2CCC1(CS(=O)(=O)Cl)C(=O)C2 (centres undefined)
- survivor count (dose: 400.0 mg/kg/injection, schedule: Q01DX001 (ip), vehicle: carboxymethylcellulose (CMC)): 2 of 4

SMILES: OCCCN1CCN(CCCC2c3ccccc3Sc3ccc(Cl)cc32)CC1 (centres undefined)
- survivor count (dose: 100.0 mg/kg/injection, schedule: Q04DX003 (ip), vehicle: saline): 3 of 4
- survivor count (dose: 200.0 mg/kg/injection, schedule: Q04DX003 (ip), vehicle: saline): 0 of 4
- survivor count (dose: 400.0 mg/kg/injection, schedule: Q04DX003 (ip), vehicle: saline): 0 of 4

SMILES: CC(C)=CCc1ccc(O)cc1
- survivor count (dose: 200.0 mg/kg/injection, schedule: Q01DX009 (ip), vehicle: saline + alcohol): 5 of 6
- survivor count (dose: 400.0 mg/kg/injection, schedule: Q01DX009 (ip), vehicle: saline + alcohol): 1 of 6

SMILES: CCCCCCC(=O)N1CC(C)OC(C)C1 (centres undefined)
- survivor count [4]: 3 of 3

SMILES: Oc1ccc2ccccc2c1N=Nc1nccs1
- survivor count (dose: 100.0 mg/kg/injection, schedule: Q01DX009 (ip), vehicle: Klucel (hydroxypropylcellulose) (HPC)): 5 of 6
- survivor count (dose: 200.0 mg/kg/injection, schedule: Q01DX009 (ip), vehicle: Klucel (hydroxypropylcellulose) (HPC)): 1 of 6
- survivor count (dose: 400.0 mg/kg/injection, schedule: Q01DX009 (ip), vehicle: Klucel (hydroxypropylcellulose) (HPC)): 0 of 6

SMILES: CN(C)CC/C(=N\N=C(N)N)c1ccccc1
- survivor count (dose: 120.0 mg/kg/injection, schedule: Q01DX Z (ip), vehicle: methylcellulose (MC)): 1 of 6
- survivor count (dose: 120.0 mg/kg/injection, schedule: Q01DX Z (oral), vehicle: methylcellulose (MC)): 3 of 6
- survivor count (dose: 240.0 mg/kg/injection, schedule: Q01DX Z (oral), vehicle: methylcellulose (MC)): 3 of 6

SMILES: Cc1ccc2c3c1C(O)C(C(N)=O)C3CCS2 (centres undefined)
- survivor count (dose: 100.0 mg/kg/injection, schedule: Q01DX001 (ip), vehicle: saline): 4 of 4

SMILES: CCC(N)C(O)C(F)(F)C(F)(F)C(F)(F)F (centres undefined)
- survivor count (dose: 400.0 mg/kg/injection, schedule: Q01DX001 (ip), vehicle: saline): 1 of 4

SMILES: COC1OC(COS(=O)(=O)c2ccc(C)cc2)C(OC(=O)c2ccccc2)C(OC(=O)c2ccccc2)C1OS(=O)(=O)c1ccc(C)cc1 (centres undefined)
- T/C [3]: 130 % of control

SMILES: CC(C)C(=O)OC1(C(C)c2ccccc2)C(=O)NC(=O)NC1=O (centres undefined)
- survivor count (dose: 100.0 mg/kg/injection, schedule: Q04DX002 (ip), vehicle: saline with Tween-80): 0 of 3
- survivor count (dose: 200.0 mg/kg/injection, schedule: Q04DX002 (ip), vehicle: saline with Tween-80): 0 of 3
- survivor count [5]: 0 of 3

SMILES: CCCCCCCCCCCCCCCCOC(=O)C[n+]1ccc(C(N)=O)cc1
- survivor count (dose: 400.0 mg/kg/injection, schedule: Q04DX003 (ip), vehicle: acetone): 3 of 6

SMILES: O=C(COc1ccc(Cl)cc1)Nc1ccc(Cl)cc1C(=O)c1ccccc1
- survivor count (dose: 100.0 mg/kg/injection, schedule: Q01DX009 (ip), vehicle: other): 6 of 6

SMILES: O/N=C(/CBr)c1ccccc1
- survivor count (dose: 100.0 mg/kg/injection, schedule: Q04DX002 (ip), vehicle: gum acacia): 0 of 3
- survivor count (dose: 200.0 mg/kg/injection, schedule: Q04DX002 (ip), vehicle: gum acacia): 0 of 3

SMILES: Oc1ccccc1C=Nc1ccc(Cc2ccc(N=Cc3ccccc3O)cc2)cc1
- survivor count (dose: 75.0 mg/kg/injection, schedule: Q04DX003 (ip), vehicle: other): 6 of 6

SMILES: O=C(Nc1cccc(F)c1)N(C1CCCCC1)C1CCCCC1
- survivor count (dose: 25.0 mg/kg/injection, schedule: Q01DX009 (ip), vehicle: gum acacia): 6 of 6
- survivor count (dose: 100.0 mg/kg/injection, schedule: Q01DX009 (ip), vehicle: gum acacia): 6 of 6
- survivor count (dose: 200.0 mg/kg/injection, schedule: Q01DX009 (ip), vehicle: gum acacia): 6 of 6

SMILES: CC1C(c2ccccc2)OCN1CN1C(=O)C=CC1=O (centres undefined) (tested in a mixture with another compound)
- survivor count (dose: 200.0 mg/kg/injection, schedule: Q04DX003 (ip), vehicle: saline with Tween-80): 6 of 6
- survivor count (dose: 400.0 mg/kg/injection, schedule: Q04DX003 (ip), vehicle: saline with Tween-80): 6 of 6

SMILES: N#C/C(=C\C1CC(Br)CCC1O)C1CCC([N+](=O)[O-])CC1 (centres undefined)
- survivor count [5]: 1 of 3

SMILES: O=C(CN1C2CCC1CC(O)C2)NCC1C(c2ccccc2)C1c1ccccc1 (centres undefined)
- survivor count [3]: 2 of 3
- survivor count [6]: 1 of 3
- survivor count [4]: 0 of 3

SMILES: [CH3][Pb]([CH3])([CH3])[O]C(=O)c1ccc([N+](=O)[O-])cc1
- survivor count [1]: 2 of 3
- survivor count [2]: 0 of 3
- survivor count [3]: 0 of 3
- survivor count [6]: 0 of 3
- survivor count [4]: 0 of 3

SMILES: COc1ccc(C(=O)NC(=O)C(C(=O)c2ccc(OC)cc2)c2ccccc2)cc1 (centres undefined)
- survivor count (dose: 200.0 mg/kg/injection, schedule: Q01DX001 (ip), vehicle: other): 4 of 4
- survivor count (dose: 400.0 mg/kg/injection, schedule: Q01DX001 (ip), vehicle: other): 4 of 4

SMILES: Cn1c(=O)c2c(ncn2CN2CCOCC2)n(C)c1=O
- survivor count (dose: 300.0 mg/kg/injection, schedule: Q01DX001 (ip), vehicle: saline): 1 of 6

SMILES: CC(=O)[C@H]1CC[C@H]2[C@@H]3C[C@H](C)C4=CC(=O)CC[C@]4(C)[C@H]3C(=O)C[C@]12C
- survivor count (dose: 80.0 mg/kg/injection, schedule: Q01DX009 (ip), vehicle: carboxymethylcellulose (CMC)): 10 of 10
- survivor count (dose: 255.0 mg/kg/injection, schedule: Q03HX008 (ip), vehicle: Klucel (hydroxypropylcellulose) (HPC)): 0 of 10
- survivor count (dose: 255.0 mg/kg/injection, schedule: Q03HX016 (ip), vehicle: Klucel (hydroxypropylcellulose) (HPC)): 0 of 10
- survivor count (dose: 255.0 mg/kg/injection, schedule: Q03HX024 (ip), vehicle: Klucel (hydroxypropylcellulose) (HPC)): 0 of 10
- survivor count (dose: 512.0 mg/kg/injection, schedule: Q01DX001 (ip), vehicle: Klucel (hydroxypropylcellulose) (HPC)): 5 of 10
- survivor count (dose: 512.0 mg/kg/injection, schedule: Q01DX009 (ip), vehicle: Klucel (hydroxypropylcellulose) (HPC)): 1 of 10
- survivor count (dose: 512.0 mg/kg/injection, schedule: Q04DX003 (ip), vehicle: Klucel (hydroxypropylcellulose) (HPC)): 4 of 10
- survivor count (dose: 800.0 mg/kg/injection, schedule: Q01DX015 (sc), vehicle: steroid suspending solution): 0 of 6
- survivor count (dose: 1024.0 mg/kg/injection, schedule: Q01DX001 (ip), vehicle: Klucel (hydroxypropylcellulose) (HPC)): 1 of 10
- survivor count (dose: 1024.0 mg/kg/injection, schedule: Q01DX009 (ip), vehicle: Klucel (hydroxypropylcellulose) (HPC)): 0 of 10
- survivor count (dose: 1024.0 mg/kg/injection, schedule: Q04DX003 (ip), vehicle: Klucel (hydroxypropylcellulose) (HPC)): 0 of 10
- survivor count (dose: 1024.0 mg/kg/injection, schedule: Q08DX002 (ip), vehicle: Klucel (hydroxypropylcellulose) (HPC)): 0 of 10
- survivor count (dose: 2048.0 mg/kg/injection, schedule: Q01DX001 (ip), vehicle: Klucel (hydroxypropylcellulose) (HPC)): 0 of 10
- survivor count (dose: 2048.0 mg/kg/injection, schedule: Q04DX003 (ip), vehicle: Klucel (hydroxypropylcellulose) (HPC)): 0 of 10
- survivor count (dose: 2048.0 mg/kg/injection, schedule: Q08DX002 (ip), vehicle: Klucel (hydroxypropylcellulose) (HPC)): 0 of 10
